In US20020037582A1:
Results are given in words; binding and its absence hold for the method and conditions named. For some of these results: In cells and extracts the contact can be indirect. Some binding calls cover weakened binding; strength is not graded here. For some of these results: Where a sequence is shown, tags or fusion partners need not be part of it.

Amino acid sequences for entries named in this document (tags omitted). A change or cut given only in a name is not applied to a line headed by its entry.
UniProt Q14449: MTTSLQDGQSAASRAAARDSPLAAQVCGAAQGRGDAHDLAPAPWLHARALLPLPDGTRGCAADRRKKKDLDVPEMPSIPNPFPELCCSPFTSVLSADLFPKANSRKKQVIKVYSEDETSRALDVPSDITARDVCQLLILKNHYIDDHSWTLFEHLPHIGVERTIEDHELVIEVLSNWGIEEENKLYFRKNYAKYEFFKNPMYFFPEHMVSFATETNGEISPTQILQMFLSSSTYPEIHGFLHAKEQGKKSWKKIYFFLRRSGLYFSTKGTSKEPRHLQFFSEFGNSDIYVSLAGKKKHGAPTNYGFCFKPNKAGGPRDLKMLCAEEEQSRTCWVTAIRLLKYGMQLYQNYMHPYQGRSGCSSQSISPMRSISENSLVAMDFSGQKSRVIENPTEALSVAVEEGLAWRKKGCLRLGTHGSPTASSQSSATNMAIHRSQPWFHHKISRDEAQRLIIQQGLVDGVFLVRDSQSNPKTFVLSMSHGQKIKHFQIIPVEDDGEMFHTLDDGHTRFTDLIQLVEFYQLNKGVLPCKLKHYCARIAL
UniProt P04386: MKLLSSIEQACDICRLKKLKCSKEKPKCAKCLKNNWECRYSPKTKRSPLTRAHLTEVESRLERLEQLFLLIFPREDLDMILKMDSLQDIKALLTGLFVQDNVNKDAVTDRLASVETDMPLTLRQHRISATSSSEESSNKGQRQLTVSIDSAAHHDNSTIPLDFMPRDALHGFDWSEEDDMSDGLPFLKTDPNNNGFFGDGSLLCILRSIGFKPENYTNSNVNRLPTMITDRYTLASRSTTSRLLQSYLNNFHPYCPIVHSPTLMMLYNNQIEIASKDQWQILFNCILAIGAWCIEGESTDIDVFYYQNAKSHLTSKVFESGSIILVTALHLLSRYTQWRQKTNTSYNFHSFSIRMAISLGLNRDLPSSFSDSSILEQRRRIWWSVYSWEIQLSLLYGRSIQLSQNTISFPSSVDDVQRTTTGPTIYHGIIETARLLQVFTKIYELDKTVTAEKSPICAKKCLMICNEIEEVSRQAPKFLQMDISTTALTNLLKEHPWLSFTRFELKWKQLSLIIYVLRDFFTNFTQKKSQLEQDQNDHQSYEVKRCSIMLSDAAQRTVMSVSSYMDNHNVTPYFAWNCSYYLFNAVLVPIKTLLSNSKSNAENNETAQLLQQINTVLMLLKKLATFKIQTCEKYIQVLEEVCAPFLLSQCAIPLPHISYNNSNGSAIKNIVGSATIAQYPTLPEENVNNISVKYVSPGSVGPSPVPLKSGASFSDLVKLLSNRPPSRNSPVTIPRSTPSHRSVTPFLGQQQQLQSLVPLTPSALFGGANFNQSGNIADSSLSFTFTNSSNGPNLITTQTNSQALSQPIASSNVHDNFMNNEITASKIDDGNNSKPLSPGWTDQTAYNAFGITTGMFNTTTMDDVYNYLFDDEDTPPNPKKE

B1: GST fusion of the N-terminal region of the original 2.2412 cDNA clone (nucleotides 694-1614 of FIG. 1) in pGEX4T2 (protein, not shown: a dimerising Fc or GST)
chain: ERLAYEFKGHSLLQAAREADVTRIKKHLSLEMVNFKHPQTHETALHCAAASPYPKRKQICELLLRKGANINEKTKEFLTPLHVASEKAHNDVVEVVVKHEAKVNALDNLGQTSLHRAAYCGHLQTCRLLLSYGCDPNIISLQGFTALQMGNENVQQLLQEGISLGNSEADRQLLEAAKAGDVETVKKLCTVQSVNCRDIEGRQSTPLHFAAGYNRVSVVEYLLQHGADVHAKDKGGLVPLHNACSYGHYEVAELLVKHGAVVNVADLWKFTPLHEAAAKGKYEICKLLLQHGADPTKKNRDGNTPLD
B2: GST fusion of the C-terminal region of the original 2.2412 cDNA clone (nucleotides 1615-2664 of FIG. 1) in pGEX4T2 (protein, not shown: a dimerising Fc or GST)
chain: LVKDGDTDIQDLLRGDAALLDAAKKGCLARVKKLSSPDNVNCRDTQGRHSTPLHLAAGYNNLEVAEYLLQHGADVNAQDKGGLIPLHNAASYGHVDVAALLIKYNASLNATDKWAFTPLHEAAQKGRTQLCALLLAHGADPTLKNQEGQTPLDLVSADDVSALLTAAMPPSALPSCYKPQVLNGVRSPGATADALSSGPSSPSSLSAASSLDNLSGSFSELSSVVSSSGTEGASSLEKKEVPGVDFSITQFVRNLGLEHLMDIFEREQITLDVLVEMGHKELKEIGINAYGHRHKLIKGVERLISGQQGLNPYLTLNTSGSGTILIDLSPDDKEFQSVEEEMQSTVREHR
B3: original 2.2412 cDNA clone in pACT-2 (nucleotides 694-2664 of FIG. 1, polypeptide of 657 amino acids) (protein, not shown: large carriers)
chain: ERLAYEFKGHSLLQAAREADVTRIKKHLSLEMVNFKHPQTHETALHCAAASPYPKRKQICELLLRKGANINEKTKEFLTPLHVASEKAHNDVVEVVVKHEAKVNALDNLGQTSLHRAAYCGHLQTCRLLLSYGCDPNIISLQGFTALQMGNENVQQLLQEGISLGNSEADRQLLEAAKAGDVETVKKLCTVQSVNCRDIEGRQSTPLHFAAGYNRVSVVEYLLQHGADVHAKDKGGLVPLHNACSYGHYEVAELLVKHGAVVNVADLWKFTPLHEAAAKGKYEICKLLLQHGADPTKKNRDGNTPLDLVKDGDTDIQDLLRGDAALLDAAKKGCLARVKKLSSPDNVNCRDTQGRHSTPLHLAAGYNNLEVAEYLLQHGADVNAQDKGGLIPLHNAASYGHVDVAALLIKYNASLNATDKWAFTPLHEAAQKGRTQLCALLLAHGADPTLKNQEGQTPLDLVSADDVSALLTAAMPPSALPSCYKPQVLNGVRSPGATADALSSGPSSPSSLSAASSLDNLSGSFSELSSVVSSSGTEGASSLEKKEVPGVDFSITQFVRNLGLEHLMDIFEREQITLDVLVEMGHKELKEIGINAYGHRHKLIKGVERLISGQQGLNPYLTLNTSGSGTILIDLSPDDKEFQSVEEEMQSTVREHR
B4: GST fusion of the full length original 2.2412 cDNA clone (nucleotides 694-2664 of FIG. 1) in pGEX4T2 (protein, not shown: a dimerising Fc or GST)
chain: B3 chain

What was measured:
[1] = target: Flag epitope-tagged Grb14 (UniProt Q14449); assay: GST pull-down from lysate of cells expressing Flag-tagged Grb14, Western blot
[2] = target: Grb7 (from human breast cancer cells SK-BR-3) (human) (UniProt Q14451); assay: GST pull-down from SK-BR-3 lysate, Western blot
[3] = target: Gal4 DNA-BD-Grb14 fusion (full length Grb14, GRB14/pAS2.1) (S. cerevisiae) (UniProt P04386+Q14449); assay: yeast two hybrid screen with Grb14 bait

Binder | binding [1] | binding [2] | binding [3]
B1 | binds | binds | –
B2 | binds | binds | –
B3 | – | – | binds
B4 | binds | binds | –
